Data taken from the supplement of paper PMC3334620.
In all, about 33,000 sequences were measured (“E-score (-0.5 to 0.5)”: median about -0.016, highest 2% from about 0.3 on). This is one part of the list.

biological target: T1, Yer184c (UniProt P39961); assay: PBM E-score (8-mer binding enrichment) (E-score (-0.5 to 0.5)); higher = stronger / more preferred TF binding; conditions: protein concentration: 100 nM; construct: GST-full length
T1 sequence: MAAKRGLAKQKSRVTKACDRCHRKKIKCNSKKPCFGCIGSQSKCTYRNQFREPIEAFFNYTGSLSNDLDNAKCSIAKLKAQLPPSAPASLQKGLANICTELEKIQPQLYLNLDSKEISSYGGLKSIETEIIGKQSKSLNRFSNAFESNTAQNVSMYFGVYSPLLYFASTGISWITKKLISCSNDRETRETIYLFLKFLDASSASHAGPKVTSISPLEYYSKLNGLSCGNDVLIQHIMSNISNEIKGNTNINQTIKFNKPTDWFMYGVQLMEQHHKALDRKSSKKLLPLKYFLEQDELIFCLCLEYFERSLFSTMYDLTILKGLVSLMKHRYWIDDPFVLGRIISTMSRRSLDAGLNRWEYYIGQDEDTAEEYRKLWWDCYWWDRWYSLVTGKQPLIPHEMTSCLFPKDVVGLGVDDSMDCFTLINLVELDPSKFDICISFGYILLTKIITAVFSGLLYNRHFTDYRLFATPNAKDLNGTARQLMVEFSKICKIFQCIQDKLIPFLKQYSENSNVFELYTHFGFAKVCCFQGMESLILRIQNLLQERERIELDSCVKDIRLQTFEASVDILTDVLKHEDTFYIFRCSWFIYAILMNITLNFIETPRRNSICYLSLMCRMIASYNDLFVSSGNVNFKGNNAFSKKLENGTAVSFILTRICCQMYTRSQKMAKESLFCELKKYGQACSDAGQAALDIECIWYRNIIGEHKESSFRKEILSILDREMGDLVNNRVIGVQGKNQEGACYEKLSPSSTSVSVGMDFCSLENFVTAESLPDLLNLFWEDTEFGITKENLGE
In short: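 Detection of bound protein used fluorescent anti-GST, with scans normalised by masliner. The proteins were GST-tagged yeast transcription factors applied at about 100-200 nM to universal all-10-mer Agilent arrays made double-stranded by primer extension. Each ungapped eight-base word, pooled with its reverse complement, was scored with an E-score from the Universal PBM Analysis Suite.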

Row | Sequence | PBM E-score
1 | GATGCGGA | 0.0925
2 | CCTGGAAC | -0.105
3 | CCAGATCA | 0.135
4 | GGGTGCAC | -0.14
5 | GTCTCTCA | 0.0704
6 | ATAATACC | 0.15
7 | AGGTCAAC | -0.143
8 | CCTGGCCA | -0.256
9 | ATCGTCGA | -0.00197
10 | GCTAGAAC | 0.0788
11 | CTCAGCCA | -0.186
12 | TAATAAAA | 0.3
13 | CACACCCG | 0.0163
14 | GCCAAAAC | -0.196
15 | CTGATTTC | 0.114
16 | CAGGGCCA | -0.365
17 | AACGCTAT | -0.159
18 | ACGATCCT | -0.147
19 | ACTGTCCC | -0.202
20 | AAGAGGGC | -0.223
21 | TAGTCGCA | -0.0672
22 | CGAATGCG | 0.147

Row | Sequence | PBM E-score
23 | CCTCCCGC | -0.12
24 | ACAGGACC | -0.0506
25 | AGCACGAG | 0.1
26 | GGTATCAA | -0.0802
27 | CGAGAACG | 0.179
28 | AGGGATCC | -0.168
29 | ATGTCGCG | -0.0449
30 | GCGAGACC | 0.00307
31 | ACTTGTTC | 0.218
32 | GCTGACCA | -0.0597
33 | GAAGAACC | -0.0402
34 | AATGAATT | 0.231
35 | CAGGTACC | -0.0701
36 | AGTCTGCG | -0.268
37 | GAAGCGTC | -0.184
38 | CCTCCTCG | -0.125
39 | GAACGGGC | -0.166
40 | CACATGGG | -0.251
41 | AGCATCCC | -0.223
42 | AGACCGAT | 0.0681
43 | GTTGGGGA | -0.207
44 | AGTGGGTA | -0.117

Row | Sequence | PBM E-score
45 | CACGCAGA | -0.012
46 | ACTACAAC | 0.0197
47 | TATGGGAA | -0.0118
48 | AAAAACGA | 0.132
49 | TCTCCGCA | 0.0183
50 | ATAGCAAA | 0.144
51 | CATGCGGC | -0.101
52 | GTATGAGA | 0.0458
53 | GCAAGCCC | -0.0906
54 | AAGCGCGG | -0.116
55 | ATGAGGAA | 0.07
56 | CCAAGCGA | -0.23
57 | CCCGACAC | -0.218
58 | CAAGTTGG | 0.0116
59 | ATCCCATA | -0.0853
60 | ATACTGCG | -0.0752
61 | AGTCACAA | -0.109
62 | CATGGTCC | -0.103
63 | ATTTTTGC | 0.223
64 | GCGTGAGA | -0.0167
65 | AACCTTTC | 0.0841
66 | ATTGTCGG | 0.186

Row | Sequence | PBM E-score
67 | CGGAAAAG | 0.248
68 | AACCAGCA | -0.0427
69 | CCACAACC | 0.189
70 | CTAGAGCC | -0.0934
71 | AAGAGAGT | -0.189
72 | CCTTAATA | -0.065
73 | ACTGGTGA | -0.286
74 | CCCCCCCA | -0.391
75 | GATGCATA | 0.0447
76 | CACTCTCC | 0.105
77 | CAAGATAG | -0.0569
78 | GGTACAGA | 0.0572
79 | CATCCTGC | -0.211
80 | GCGATTAC | -0.0336
81 | CCACTCAC | -0.126
82 | GACCGCGA | -0.0337
83 | AGAATTAC | 0.245
84 | GCTAGAAA | 0.166
85 | CTCACACA | -0.0396
86 | GAATGTCA | -0.0807
